Test results as given in article PMC7279049.
No constants are given. Whether binding was seen depends on the method and setting. Binding seen in cells or lysates may run through a third protein. Binding can be weak; no strength is given.

Molecular target: EDEM1 mutant lacking the IDR (∆-EDEM1)
Assay: co-IP; HEK293T overexpressing empty vector, EDEM1 or ∆-EDEM1, with or without 30 µM kifunensine overnight; CHAPS buffer; immunoprecipitation with antibodies for EDEM1, SEL1L, OS-9 or XTP3-B, Western blot for EDEM1, SEL1L, OS-9 and XTP3-B (Figure 3B-E; control siRNA samples of Figure A1J)

B1: XTP3-B (ERLEC1) (protein, UniProt Q96DZ1 34-483)
chain: LPQLSDDIPFRVNWPGTEFSLPTTGVLYKEDNYVIMTTAHKEKYKCILPLVTSGDEEEEKDYKGPNPRELLEPLFKQSSCSYRIESYWTYEVCHGKHIRQYHEEKETGQKINIHEYYLGNMLAKNLLFEKEREAEEKEKSNEIPTKNIEGQMTPYYPVGMGNGTPCSLKQNRPRSSTVMYICHPESKHEILSVAEVTTCEYEVVILTPLLCSHPKYRFRASPVNDIFCQSLPGSPFKPLTLRQLEQQEEILRVPFRRNKEEDLQSTKEERFPAIHKSIAIGSQPVLTVGTTHISKLTDDQLIKEFLSGSYCFRGGVGWWKYEFCYGKHVHQYHEDKDSGKTSVVVGTWNQEEHIEWAKKNTARAYHLQDDGTQTVRMVSHFYGNGDICDITDKPRQVTVKLKCKESDSPHAVTVYMLEPHSCQYILGVESPVICKILDTADENGLLSLPN
Question: How did the binding turn out when B1 was run?
Answer: binds
